In the supplement of paper PMC5949888 one finds growth estimate data, which are given here for 115 substances.

Most values lie at the floor of the assay. Slopes are relative: functional sequences can read slightly below zero.

The data set has as its system Saccharomyces cerevisiae PS128 hsf1 delta, HSF1(1-493) fusion. Nature of the data set: growth estimate (transactivation domain function in HSF1 fusion, heat-shock survival) (a.u. (slope of normalised read count over time)); higher = stronger growth at 37°C, i.e. more transactivation activity. Particulars: library: random library.
For ARRSFMGCGSILRGSSQQPV, the growth estimate was under -0.25.
PFQPCSPVSYDV: the growth estimate is under -0.25.
As to YRMHLSLVSEKVEMVSLGRA, the growth estimate is under -0.25.
Consider ESIKRSIDFS, for which the growth estimate is under -0.25.
For DDMRSGGGVLLG, the growth estimate is under -0.25.
Consider QQRLTNFHGNSRSVSKPRRP, for which the growth estimate is under -0.25.
As to LSPSNTIAG, the growth estimate was under -0.25.
As for KGQPRNAGVLHYV, the growth estimate was under -0.25.
As for ASSKFRL, the growth estimate is under -0.25.
In the case of IFCSWASKGLNKPVSDFCDA, the growth estimate is under -0.25.
In the case of AANCRRRSQYQSQCRFYPVN, the growth estimate was under -0.25.
For the substance IADSLQRCRRSETLFYYGTA, the growth estimate is under -0.25.
Regarding ARREMPRLMRHPAFLGQTVP, the growth estimate is under -0.25.
On to FLHYADIPPGNGSDHQPDRW, for which the growth estimate is under -0.25.
Turning to VIDGVRPSTVSESVRFLRFS, the growth estimate is under -0.25.
RSQGDEPYCSCTRTLP: the growth estimate was under -0.25.
Turning to RTCGSVQG, the growth estimate is under -0.25.
For HRIVQVELKVAYIPTIL, the growth estimate was under -0.25.
Turning to FPQ, the growth estimate is under -0.25.
The same measure for CMTLRNS: under -0.25; for ASVVVVERLGPPP: under -0.25; for FGTRSSLDTRDSIITGPSDP: under -0.25.
Turning to VNNLAIKKEGKGGLERRRLC, the growth estimate was under -0.25.
The same measure for EGKAMRLVILDID: under -0.25; for GSMELE: under -0.25.
Regarding RLYSSHWVSRALWCRCPHPE, the growth estimate was under -0.25.
With IQYPMLFVVMPMRVSGHLLP, the growth estimate is under -0.25.
In the case of IRPA, the growth estimate was under -0.25.
In the case of RRVFNATYSLRVPCVCQQNT, the growth estimate is under -0.25.
On to PPTGEAAQC, for which the growth estimate was under -0.25.
Take RTLR: the growth estimate is under -0.25.
On to RWLRFFSRALSPD, for which the growth estimate is under -0.25.
As to LLAYPDRLEGWYYHRGHHTG, the growth estimate was under -0.25.
The same measure for QLEVDNASVHLLGRPFNTAV: under -0.25; for LPEAPKVIYRQAS: under -0.25; for YQGRIGAPAVIRHR: under -0.25.
Turning to PTGRGLHRVLIAVISNSGGI, the growth estimate was under -0.25.
On to RQFIGLDAVGRFQA, for which the growth estimate was under -0.25.
IIVRIRDPRPYTGMLSECQT: the growth estimate is under -0.25.
With FGCIIPFGAILSFRLRLSAG, the growth estimate was under -0.25.
The same measure for RAIRASM: under -0.25.
ALTSSAESHRLISLSTSDLR: the growth estimate is under -0.25.
As for QSKGKLHHLLSRGVRVEYVA, the growth estimate is under -0.25.
With SAHV, the growth estimate is under -0.25.
The figure for LGLKENTVSTLVSQD is under -0.25; for PSVGLEREFGHRKCRTLRSD it is under -0.25.
GTRTKLVRSVNAHSSPSQAA: the growth estimate was under -0.25.
For RFNVSEGRRVANVEHGGSNS, the growth estimate is under -0.25.
On to NRVL, for which the growth estimate was under -0.25.
REHGH: the growth estimate was under -0.25.
On to VTTVKVQGVGGWCARSTTFY, for which the growth estimate was under -0.25.
In the case of QPVIQR, the growth estimate is under -0.25.
With KWVGLSL, the growth estimate was under -0.25.
EWQGLSLQACDFLFDNARPS: the growth estimate is 2.79.
Regarding TGATSKRAWCLNLRDARVHS, the growth estimate is under -0.25.
For RGHIRGS, the growth estimate was under -0.25.
With DHPSVERAMEPLLPVSNGEA, the growth estimate is under -0.25.
On to CQRLKYLPRIEHGESLGDPT, for which the growth estimate was under -0.25.
For CNQPSNPRVVTGRGTRRLKD, the growth estimate was under -0.25.
The figure for RGLSHTFNGSFSVEAGNPVR is under -0.25; for IEIITSRACAVSWRCLERRV it is under -0.25; for SCEPHQNVYPVNWSPMLNAM it is under -0.25.
The figure for FVAIGYGATTGQANPLTRVL is under -0.25.
Consider HLA, for which the growth estimate was under -0.25.
For the substance CGTSTQFFVSKNLLVRVMRR, the growth estimate is under -0.25.
Regarding PQE, the growth estimate is under -0.25.
The same measure for MSKSTPGQ: -0.238.
For DRAAAGSVTKFFPRPSTQVR, the growth estimate was under -0.25.
Regarding SRHYRFEERWSSTMGTQPPI, the growth estimate is under -0.25.
The same measure for MPALLQDRYLPQPTIGSMIG: under -0.25; for VCHVGSLTHQLF: under -0.25.
Consider PSVDKYPQWLPQLVGATSGK, for which the growth estimate is under -0.25.
Consider HVLFRTSGVVT, for which the growth estimate was -0.246.
The same measure for LWFILVLSQWARISKFAQGD: under -0.25.
Consider NQRRSKQRVWEGVGMVTVQA, for which the growth estimate was under -0.25.
With TVHVGCLPFGWG, the growth estimate was under -0.25.
The figure for VHRRPAV is under -0.25; for AVVGGRPETGYSLPALSPWI it is under -0.25.
The figure for NVTTVRAALSGSALLADGS is under -0.25.
The same measure for SRDS: -0.246; for RDHRGAEGALAPGKGTNMDG: under -0.25.
Turning to EVKTVDANRTRLRDNN, the growth estimate is under -0.25.
In the case of DTLELYR, the growth estimate is under -0.25.
On to LQRVALMRGEPIS, for which the growth estimate was under -0.25.
With LMPD, the growth estimate is under -0.25.
Regarding ATKESLVVLDLR, the growth estimate was under -0.25.
The figure for IHD is -0.245.
KFRENEADVVSPNV: the growth estimate was under -0.25.
In the case of TVTSP, the growth estimate is under -0.25.
For YWSGGSVGCKLWFSRLNPNP, the growth estimate is under -0.25.
Turning to LWAEVREIIPADCSGRAPGL, the growth estimate is under -0.25.
The same measure for KGTVLNCYHRLVGNEPEPLR: under -0.25; for LPVILRHT: under -0.25.
On to VFDLRPR, for which the growth estimate is under -0.25.
On to SIMLN, for which the growth estimate is under -0.25.
For the substance MQTNGK, the growth estimate was under -0.25.
The figure for LHRFRGRTVLVGWGGIRHLG is under -0.25; for SCNASKHSLKNPVENATRTP it is under -0.25; for WCEGI it is under -0.25.
With QSAAGGRSWW, the growth estimate was under -0.25.
Regarding SGFRVNRRILTCSSYTVGSG, the growth estimate was under -0.25.
The same measure for LLEIRCATRDRSVAGQLRAC: under -0.25; for TGNGILRLHGATEGFWIRFA: under -0.25; for PEGILFLQLAQCKGGG: under -0.25.
For the substance ARRVLAPWDLLIGSGSHFTS, the growth estimate was under -0.25.
Consider NSSSPGGPSY, for which the growth estimate is under -0.25.
Consider VLDDDEMRLLR, for which the growth estimate is under -0.25.
Regarding RGCPLVQSWDSQSMQ, the growth estimate is under -0.25.
As to STPRVQTVRDRSSRVRLIAV, the growth estimate was under -0.25.
With PQALP, the growth estimate is under -0.25.
VGSRSR: the growth estimate is under -0.25.
Turning to IPLLPSSREPSGSFTL, the growth estimate is under -0.25.
As to YSSMKEFDCSTNARASSLWL, the growth estimate is under -0.25.
AQQARSRMFMSEYTTLPAQQ: the growth estimate is under -0.25.
VPTVHVSDTGYMREE: the growth estimate was under -0.25.
